According to the supplement of paper PMC8728848:
The other results are listed elsewhere or left out.

Experiments:
Experiment in all cases: glycan array binding signal (z-score within array); higher = stronger binding
Settings in all cases: glycan notation: IUPAC condensed, linker removed
[1] = target: Fuc(a1-2)Gal(b1-4)[Fuc(a1-3)]GlcNAc
In short: (§1)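 Columns mapping to the same glycan were averaged after glycan names were converted to IUPAC-condensed notation. The data come from 3228 arrays in the Consortium for Functional Glycomics database, limited to those with an available protein sequence. Binding is reported as a within-array Z-score averaged across arrays of one protein sequence and across linkers.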

[2] = target: Fuc(a1-2)Gal(b1-4)[Fuc(a1-3)]GlcNAc(b1-2)Man(a1-3)[Fuc(a1-2)Gal(b1-4)[Fuc(a1-3)]GlcNAc(b1-2)Man(a1-6)]Man(b1-4)GlcNAc(b1-4)GlcNAc
In short: as §1

[3] = target: Fuc(a1-2)Gal(b1-4)[Fuc(a1-3)]GlcNAc(b1-2)[Fuc(a1-2)Gal(b1-4)[Fuc(a1-3)]GlcNAc(b1-4)]Man(a1-3)[Fuc(a1-2)Gal(b1-4)[Fuc(a1-3)]GlcNAc(b1-2)Man(a1-6)]Man(b1-4)GlcNAc(b1-4)GlcNAc
In short: as §1

[4] = target: Fuc(a1-2)Gal(b1-4)[Fuc(a1-3)]GlcNAc(b1-3)Gal(b1-4)[Fuc(a1-3)]GlcNAc
In short: as §1

[5] = target: Fuc(a1-2)Gal(b1-4)[Fuc(a1-3)]GlcNAc(b1-3)Gal(b1-4)[Fuc(a1-3)]GlcNAc(b1-3)Gal(b1-4)[Fuc(a1-3)]GlcNAc
In short: as §1

[6] = target: Fuc(a1-2)Gal(b1-4)[Fuc(a1-3)]GlcNAc(b1-3)GalNAc
In short: as §1

Fuc(a1-2)Gal6S(b1-4)Glc = target: Fuc(a1-2)Gal6S(b1-4)Glc
In short: as §1

[7] = target: Fuc(a1-2)Gal6S(b1-4)Glc6S
In short: as §1

[8] = target: Fuc(a1-2)Gal6S(b1-4)GlcNAc
In short: as §1

Fuc(a1-2)[Gal(a1-3)]Gal = target: Fuc(a1-2)[Gal(a1-3)]Gal
In short: as §1

[9] = target: Fuc(a1-2)[Gal(a1-3)]Gal(b1-3)GalNAc
In short: as §1

[10] = target: Fuc(a1-2)[Gal(a1-3)]Gal(b1-3)GlcNAc
In short: as §1

[11] = target: Fuc(a1-2)[Gal(a1-3)]Gal(b1-3)GlcNAc(b1-2)Man(a1-3)[Fuc(a1-2)[Gal(a1-3)]Gal(b1-3)GlcNAc(b1-2)Man(a1-6)]Man(b1-4)GlcNAc(b1-4)GlcNAc
In short: as §1

[12] = target: Fuc(a1-2)[Gal(a1-3)]Gal(b1-3)GlcNAc(b1-2)Man(a1-3)[Fuc(a1-2)[Gal(a1-3)]Gal(b1-3)GlcNAc(b1-2)Man(a1-6)]Man(b1-4)GlcNAc(b1-4)[Fuc(a1-6)]GlcNAc
In short: as §1

[13] = target: Fuc(a1-2)[Gal(a1-3)]Gal(b1-3)GlcNAc(b1-3)GalNAc
In short: as §1

[14] = target: Fuc(a1-2)[Gal(a1-3)]Gal(b1-4)Glc
In short: as §1

[15] = target: Fuc(a1-2)[Gal(a1-3)]Gal(b1-4)GlcNAc
In short: as §1

[16] = target: Fuc(a1-2)[Gal(a1-3)]Gal(b1-4)GlcNAc(b1-2)Man(a1-3)[Fuc(a1-2)[Gal(a1-3)]Gal(b1-4)GlcNAc(b1-2)Man(a1-6)]Man(b1-4)GlcNAc(b1-4)GlcNAc
In short: as §1

[17] = target: Fuc(a1-2)[Gal(a1-3)]Gal(b1-4)GlcNAc(b1-2)Man(a1-3)[Fuc(a1-2)[Gal(a1-3)]Gal(b1-4)GlcNAc(b1-2)Man(a1-6)]Man(b1-4)GlcNAc(b1-4)[Fuc(a1-6)]GlcNAc
In short: as §1

[18] = target: Fuc(a1-2)[Gal(a1-3)]Gal(b1-4)GlcNAc(b1-3)GalNAc
In short: as §1

[19] = target: Fuc(a1-2)[Gal(a1-3)]Gal(b1-4)[Fuc(a1-3)]Glc
In short: as §1

[20] = target: Fuc(a1-2)[Gal(a1-3)]Gal(b1-4)[Fuc(a1-3)]GlcNAc
In short: as §1

B1: Flo11 (Saccharomyces cerevisiae), P08640 (protein)
chain: MQRPFLLAYLVLSLLFNSALGFPTALVPRGSSEGTSCNSIVNGCPNLDFNWHMDQQNIMQYTLDVTSVSWVQDNTYQITIHVKGKENIDLKYLWSLKIIGVTGPKGTVQLYGYNENTYLIDNPTDFTATFEVYATQDVNSCQVWMPNFQIQFEYLQGSAAQYASSWQWGTTSFDLSTGCNNYDNQGHSQTDFPGFYWNIDCDNNCGGTKSSTTTSSTSESSTTTSSTSESSTTTSSTSESSTTTSSTSESSTSSSTTAPATPTTTSCTKEKPTPPTTTSCTKEKPTPPHHDTTPCTKKKTTTSKTCTKKTTTPVPTPSSSTTESSSAPVPTPSSSTTESSSAPVTSSTTESSSAPVPTPSSSTTESSSAPVTSSTTESSSAPVTSSTTESSSAPVPTPSSSTTESSSAPVTSSTTESSSAPVTSSTTESSSAPVTSSTTESSSAPVTSSTTESSSAPVPTPSSSTTESSSAPVTSSTTESSSAPVPTPSSSTTESSSAPVTSSTTESSSAPVPTPSSSTTESSSAPAPTPSSSTTESSSAPVTSSTTESSSAPVPTPSSSTTESSSTPVTSSTTESSSAPVPTPSSSTTESSSAPVPTPSSSTTESSSAPAPTPSSSTTESSSAPVTSSTTESSSAPVPTPSSSTTESSSAPVPTPSSSTTESSSAPVPTPSSSTTESSSAPVTSSTTESSSAPVTSSTTESSSAPVPTPSSSTTESSSAPVPTPSSSTTESSSAPVPTPSSSTTESSSAPVTSSTTESSSAPVPTPSSSTTESSSAPVPTPSSSTTESSSAPVPTPSSSTTESSVAPVPTPSSSSNITSSAPSSTPFSSSTESSSVPVPTPSSSTTESSSAPVSSSTTESSVAPVPTPSSSSNITSSAPSSIPFSSTTESFSTGTTVTPSSSKYPGSQTETSVSSTTETTIVPTKTTTSVTTPSTTTITTTVCSTGTNSAGETTSGCSPKTVTTTVPTTTTTSVTTSSTTTITTTVCSTGTNSAGETTSGCSPKTITTTVPCSTSPSETASESTTTSPTTPVTTVVSTTVVTTEYSTSTKPGGEITTTFVTKNIPTTYLTTIAPTPSVTTVTNFTPTTITTTVCSTGTNSAGETTSGCSPKTVTTTVPCSTGTGEYTTEATTLVTTAVTTTVVTTESSTGTNSAGKTTTGYTTKSVPTTYVTTLAPSAPVTPATNAVPTTITTTECSAATNAAGETTSVCSAKTIVSSASAGENTAPSATTPVTTAIPTTVITTESSVGTNSAGETTTGYTTKSIPTTYITTLIPGSNGAKNYETVATATNPISIKTTSQLATTASASSVAPVVTSPSLTGPLQSASGSAVATYSVPSISSTYQGAANIKVLGNFMWLLLALPVVF
**Q.** Which results are given for B1?
**A.** glycan array binding signal (z-score) [1]: -0.01; glycan array binding signal (z-score) [2]: 0.704; glycan array binding signal (z-score) [3]: 1.64; glycan array binding signal (z-score) [4]: 0.588; glycan array binding signal (z-score) [5]: 0.258; glycan array binding signal (z-score) [6]: 5.39; glycan array binding signal (z-score) (Fuc(a1-2)Gal6S(b1-4)Glc): 1.42; glycan array binding signal (z-score) [7]: 0.012; glycan array binding signal (z-score) [8]: -0.166; glycan array binding signal (z-score) (Fuc(a1-2)[Gal(a1-3)]Gal): -0.3; glycan array binding signal (z-score) [9]: -0.253; glycan array binding signal (z-score) [10]: -0.315; glycan array binding signal (z-score) [11]: -0.389; glycan array binding signal (z-score) [12]: 1.01; glycan array binding signal (z-score) [13]: -0.007; glycan array binding signal (z-score) [14]: 0.319; glycan array binding signal (z-score) [15]: -0.051; glycan array binding signal (z-score) [16]: -1.04; glycan array binding signal (z-score) [17]: 0.146; glycan array binding signal (z-score) [18]: -1.11; glycan array binding signal (z-score) [19]: -0.826; glycan array binding signal (z-score) [20]: 0.665
